Some of the results follow.
Key:
Experiment in all cases: log2 fold change, soluble protein after heating vs DMSO (PISA); higher = thermal stabilisation; K562 lysate, 10 uM; active = over 0.2 and 3.5 SD of the protein, either way, in both replicates (recomputed)
erlotinib = compound: C#Cc1cccc(Nc2ncnc3cc(OCCOC)c(OCCOC)cc23)c1 [erlotinib]
In short: (§1)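 Thermal stability, expressed as log-two fold change relative to solvent controls, is given from duplicates. Crude K562 extract in PBS pH 7.4 with 1 mM MgCl2, at 1 mg/mL protein, was treated with 10 μM compound for 30 min and heated in aliquots for 3 min across 48°C-58°C. After pooling, adjustment to 0.5% NP-40 at 4°C and centrifugation at 21,000xg for 90 min, supernatant protein was measured by TMTpro 16plex LC-MS/MS with channel sums equalised.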

By UniProt entry, the sequences of proteins in these tests, tags left out. Where a name states a change or a piece, a line headed by the entry shows the natural chain unless it says otherwise.
UniProt P35670: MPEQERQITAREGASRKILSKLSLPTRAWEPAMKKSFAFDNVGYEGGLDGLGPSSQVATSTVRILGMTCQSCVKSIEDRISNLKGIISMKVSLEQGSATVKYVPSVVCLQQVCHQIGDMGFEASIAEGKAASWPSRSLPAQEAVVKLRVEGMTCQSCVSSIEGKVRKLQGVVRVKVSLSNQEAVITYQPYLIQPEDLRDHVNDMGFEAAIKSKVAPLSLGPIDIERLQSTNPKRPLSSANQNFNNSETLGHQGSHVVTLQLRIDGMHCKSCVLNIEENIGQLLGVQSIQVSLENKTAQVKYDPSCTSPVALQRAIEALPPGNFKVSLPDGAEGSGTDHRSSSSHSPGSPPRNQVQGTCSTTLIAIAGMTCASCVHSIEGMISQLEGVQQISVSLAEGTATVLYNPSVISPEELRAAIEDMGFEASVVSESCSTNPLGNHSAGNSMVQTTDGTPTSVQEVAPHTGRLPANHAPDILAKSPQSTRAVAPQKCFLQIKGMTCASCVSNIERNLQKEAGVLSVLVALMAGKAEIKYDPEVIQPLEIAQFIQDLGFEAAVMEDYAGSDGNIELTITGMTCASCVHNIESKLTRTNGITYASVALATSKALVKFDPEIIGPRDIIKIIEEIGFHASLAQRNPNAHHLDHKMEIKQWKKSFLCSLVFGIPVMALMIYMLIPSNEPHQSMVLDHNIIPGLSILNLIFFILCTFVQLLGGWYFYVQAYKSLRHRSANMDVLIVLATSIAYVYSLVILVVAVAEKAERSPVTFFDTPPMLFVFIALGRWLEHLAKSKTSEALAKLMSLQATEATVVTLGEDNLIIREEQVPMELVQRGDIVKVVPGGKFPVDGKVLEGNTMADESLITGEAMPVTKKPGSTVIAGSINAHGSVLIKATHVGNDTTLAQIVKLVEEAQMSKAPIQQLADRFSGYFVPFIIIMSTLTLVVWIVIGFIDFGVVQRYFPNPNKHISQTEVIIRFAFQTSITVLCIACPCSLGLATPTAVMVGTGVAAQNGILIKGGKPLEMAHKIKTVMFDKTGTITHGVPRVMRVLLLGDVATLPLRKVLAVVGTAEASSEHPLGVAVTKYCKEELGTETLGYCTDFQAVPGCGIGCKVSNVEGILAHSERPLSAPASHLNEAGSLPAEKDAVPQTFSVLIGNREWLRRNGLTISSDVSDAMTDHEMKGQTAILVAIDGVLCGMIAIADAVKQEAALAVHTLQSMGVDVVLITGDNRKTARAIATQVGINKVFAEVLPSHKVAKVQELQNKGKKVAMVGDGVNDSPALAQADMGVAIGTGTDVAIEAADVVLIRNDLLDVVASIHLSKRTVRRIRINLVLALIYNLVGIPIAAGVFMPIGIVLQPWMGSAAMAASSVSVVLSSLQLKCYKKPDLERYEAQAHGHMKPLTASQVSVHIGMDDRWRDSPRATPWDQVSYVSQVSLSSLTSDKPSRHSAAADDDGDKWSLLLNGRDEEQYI
UniProt Q9H7T9: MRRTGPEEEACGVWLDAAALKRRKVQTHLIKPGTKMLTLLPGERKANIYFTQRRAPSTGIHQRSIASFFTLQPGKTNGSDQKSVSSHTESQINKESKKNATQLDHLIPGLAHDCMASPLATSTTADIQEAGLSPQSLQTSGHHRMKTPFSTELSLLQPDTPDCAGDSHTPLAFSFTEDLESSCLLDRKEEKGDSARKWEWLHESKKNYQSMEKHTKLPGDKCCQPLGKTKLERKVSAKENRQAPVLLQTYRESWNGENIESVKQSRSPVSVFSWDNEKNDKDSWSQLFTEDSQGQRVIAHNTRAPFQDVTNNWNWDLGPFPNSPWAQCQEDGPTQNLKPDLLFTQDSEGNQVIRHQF
UniProt Q9H0Y0: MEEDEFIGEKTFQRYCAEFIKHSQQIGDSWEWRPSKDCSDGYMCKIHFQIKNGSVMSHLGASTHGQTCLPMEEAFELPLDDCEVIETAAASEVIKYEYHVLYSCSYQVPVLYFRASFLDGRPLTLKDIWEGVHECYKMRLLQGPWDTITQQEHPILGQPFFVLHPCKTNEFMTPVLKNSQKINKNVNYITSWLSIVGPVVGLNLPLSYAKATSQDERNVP
UniProt Q00973: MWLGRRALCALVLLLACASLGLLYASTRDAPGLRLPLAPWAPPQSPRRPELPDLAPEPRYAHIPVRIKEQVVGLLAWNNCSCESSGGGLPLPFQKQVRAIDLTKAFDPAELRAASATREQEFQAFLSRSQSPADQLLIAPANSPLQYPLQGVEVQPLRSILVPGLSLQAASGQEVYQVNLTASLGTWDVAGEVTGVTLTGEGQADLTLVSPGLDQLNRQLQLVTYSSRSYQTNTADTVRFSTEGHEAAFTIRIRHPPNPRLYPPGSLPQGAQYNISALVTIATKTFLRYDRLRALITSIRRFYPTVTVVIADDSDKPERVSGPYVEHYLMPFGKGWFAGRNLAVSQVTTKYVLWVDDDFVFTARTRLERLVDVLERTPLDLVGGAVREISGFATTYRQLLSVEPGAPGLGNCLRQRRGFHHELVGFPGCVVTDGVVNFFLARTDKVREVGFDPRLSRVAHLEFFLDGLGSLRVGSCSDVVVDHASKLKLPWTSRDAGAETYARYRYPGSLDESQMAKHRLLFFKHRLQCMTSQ
UniProt H3BUF6: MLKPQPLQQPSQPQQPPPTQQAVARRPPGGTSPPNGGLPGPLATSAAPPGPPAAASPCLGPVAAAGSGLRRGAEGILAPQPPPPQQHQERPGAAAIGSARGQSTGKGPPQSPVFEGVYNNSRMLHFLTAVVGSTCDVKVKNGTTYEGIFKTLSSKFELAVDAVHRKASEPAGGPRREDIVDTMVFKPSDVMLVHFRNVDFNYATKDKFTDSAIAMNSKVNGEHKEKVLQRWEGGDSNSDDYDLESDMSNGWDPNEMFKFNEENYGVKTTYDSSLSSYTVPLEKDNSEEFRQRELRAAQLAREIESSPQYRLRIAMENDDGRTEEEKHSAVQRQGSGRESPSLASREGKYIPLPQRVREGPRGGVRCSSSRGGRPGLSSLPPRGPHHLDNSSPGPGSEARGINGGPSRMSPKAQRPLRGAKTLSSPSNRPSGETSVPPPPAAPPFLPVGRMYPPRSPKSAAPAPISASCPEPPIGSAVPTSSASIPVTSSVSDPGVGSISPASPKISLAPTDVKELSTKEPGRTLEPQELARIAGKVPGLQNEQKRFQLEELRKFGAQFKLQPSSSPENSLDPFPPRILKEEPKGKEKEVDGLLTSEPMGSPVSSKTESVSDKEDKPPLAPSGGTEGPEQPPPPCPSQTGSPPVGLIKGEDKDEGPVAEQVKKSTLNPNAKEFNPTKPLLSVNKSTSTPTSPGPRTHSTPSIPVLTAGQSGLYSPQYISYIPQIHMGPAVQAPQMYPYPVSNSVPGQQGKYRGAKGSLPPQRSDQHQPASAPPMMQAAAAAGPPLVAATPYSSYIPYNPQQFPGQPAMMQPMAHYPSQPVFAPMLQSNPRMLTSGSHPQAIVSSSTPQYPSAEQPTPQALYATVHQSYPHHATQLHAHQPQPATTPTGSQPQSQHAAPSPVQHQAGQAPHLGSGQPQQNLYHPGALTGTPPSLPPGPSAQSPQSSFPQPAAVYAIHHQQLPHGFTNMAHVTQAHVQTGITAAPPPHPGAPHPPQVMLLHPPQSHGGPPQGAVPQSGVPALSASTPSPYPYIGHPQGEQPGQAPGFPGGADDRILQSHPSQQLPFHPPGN
UniProt P18846: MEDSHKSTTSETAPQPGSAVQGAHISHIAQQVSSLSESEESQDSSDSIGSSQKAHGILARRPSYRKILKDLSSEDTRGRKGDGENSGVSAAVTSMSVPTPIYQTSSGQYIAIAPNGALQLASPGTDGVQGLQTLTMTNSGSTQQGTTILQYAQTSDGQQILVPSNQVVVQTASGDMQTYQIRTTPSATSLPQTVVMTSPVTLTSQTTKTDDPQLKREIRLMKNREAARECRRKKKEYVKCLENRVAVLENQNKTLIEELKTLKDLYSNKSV
UniProt P61769, whole entry, looked up: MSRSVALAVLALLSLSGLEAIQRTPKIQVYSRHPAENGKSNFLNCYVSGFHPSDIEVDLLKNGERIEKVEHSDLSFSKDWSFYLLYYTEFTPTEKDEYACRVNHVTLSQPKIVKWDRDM

[1] = compound: C/C(=N\NC(=O)C1=CC(=CC=C1)S(=O)(=O)N2CCOCC2)/C3=C(C=CC(=C3)Cl)O
In short: as §1

[2] = compound: C1=CC(=CC=C1C2=NC3=C(N2)C=C(C=C3)C(=O)N)OC4=CC=C(C=C4)Cl
In short: as §1

[3] = compound: C1=CC2=C(C=CC(=C2)/C=C\3/C(=O)NC(=NCC4=CC=CS4)S3)N=C1
In short: as §1

[4] = compound: C1=CC2=NC=CN=C2C=C1/C=C/3\C(=O)NC(=O)S3
In short: as §1

[5] = compound: C1=CC=C2C(=C1)C3=NNC4=CC=CC(=C43)C2=O
In short: as §1

[6] = compound: C1CCN(C1)C(=O)NC2=CC=CC(=C2)NC3=NC=C(C(=N3)NCCC4=CN=CN4)Br
In short: as §1

[7] = compound: C1CN(CCC1(CC2=CC=C(C=C2)Cl)N)C3=NC=NC4=C3C=CN4
In short: as §1

ibrutinib = compound: C=CC(=O)N1CCC[C@@H](n2nc(-c3ccc(Oc4ccccc4)cc3)c3c(N)ncnc32)C1 [ibrutinib]
In short: as §1

[8] = compound: CC(=O)c1cnc2ccc(-c3cc(Cl)c(O)c(Cl)c3)nc2c1N[C@H]1CC[C@H](CN(C)C)CC1
In short: as §1

[9] = compound: CC(C)C1=C2N=C(C=C(N2N=C1)NCC3=CC=CC=C3)NCCCCCCN
In short: as §1

[10] = compound: CC1=C(C(CC(=O)N1)C2=CC=C(C=C2)C(F)(F)F)C(=O)NC3=C(C=C4C(=C3)C=NN4)F
In short: as §1

[11] = compound: CC1=C(C2=C(C=C1)C(=O)C3=CC=CC=C3N2CCCN)C
In short: as §1

[12] = compound: CC1=C(C=C(C=C1)NC(=O)C2=CC(=CC=C2)C(C)(C)C#N)NC3=CC4=C(C=C3)N=CN(C4=O)C
In short: as §1

[13] = compound: CC1=CC=C(C=C1)SC2=C3C=C(SC3=CN=C2)C(=O)N
In short: as §1

[14] = compound: C1=CC=C(C=C1)C2=NC(=C(N2)C3=CC=NC=C3)C4=CC(=C(C=C4)Cl)O
In short: as §1

IRAK-1-4 Inhibitor I = compound: C1COCCN1CCN2C3=CC=CC=C3N=C2NC(=O)C4=CC(=CC=C4)[N+](=O)[O-] [IRAK-1-4 Inhibitor I]
In short: as §1

ralimetinib = compound: CC(C)(C)Cn1c(N)nc2ccc(-c3[nH]c(C(C)(C)C)nc3-c3ccc(F)cc3)nc21 [ralimetinib]
In short: as §1

[15] = compound: CC(C)(O)CC(=O)NCCn1ccc2ncnc(Nc3ccc(Oc4cccc(C(F)(F)F)c4)c(Cl)c3)c21
In short: as §1

[16] = compound: CC1=C(C=C(C=C1)NC(=O)C2=CC(=CC=C2)N(C)C)NC(=O)C3=CC=C(C=C3)O
In short: as §1

Measured: log2 fold change

ATP7B (UniProt P35670)
inactive: erlotinib 0.015 | [1] -0.118 | [2] 0.021 | [3] -0.004 | [4] -0.009 | [5] -0.047 | [6] 0.052 | [7] -0.051 | ibrutinib 0.025 | [8] -0.031 | [9] 0.034 | [10] -0.015 | [11] -0.075 | [12] 0.001 | [13] -0.01

AUNIP isoform 2 (UniProt Q9H7T9)
inactive: erlotinib 0.062 | [1] -0.037 | [2] -0.017 | [3] 0.004 | [4] -0.088 | [14] 0.092 | [5] 0.024 | [6] -0.006 | [7] 0.028 | IRAK-1-4 Inhibitor I 0.006 | ibrutinib -0.058 | ralimetinib -0.021 | [15] 0.112 | [9] 0.007 | [11] 0.039 | [12] 0.103 | [16] -0.026

ATG10 (UniProt Q9H0Y0)
inactive: erlotinib 0.062 | [1] 0.043 | [2] -0.011 | [3] -0.012 | [4] -0.01 | [14] 0.035 | [5] 0.086 | [6] -0.004 | [7] -0.004 | IRAK-1-4 Inhibitor I 0.022 | ibrutinib 0.057 | ralimetinib 0.001 | [15] -0.013 | [9] -0.062 | [10] -0.132 | [11] 0.063 | [12] 0.053 | [16] 0.012

B4GALNT1 (UniProt Q00973)
inactive: erlotinib 0.127 | [1] 0.072 | [2] -0.012 | [3] -0.055 | [14] -0.011 | [5] 0.018 | [6] -0.036 | [7] 0.028 | IRAK-1-4 Inhibitor I 0.068 | [8] 0.083 | ralimetinib -0.063 | [15] -0.059 | [9] -0.006 | [10] 0.107 | [11] -0.076 | [12] -0.024 | [16] -0.042 | [13] -0.027

ATXN2L (UniProt H3BUF6)
inactive: erlotinib 0.051 | [1] -0.259 | [2] 0.048 | [3] -0.025 | [5] 0.027 | [6] -0.067 | [7] 0.058 | [8] -0.013 | [9] -0.042 | [10] 0.052 | [11] -0.145 | [12] 0.11 | [13] 0.007

ATF1 (UniProt P18846)
inactive: erlotinib -0.04 | [2] 0.048 | [4] -0.055 | [14] 0.022 | [6] -0.085 | [7] 0.199 | IRAK-1-4 Inhibitor I -0.06 | ibrutinib -0.039 | [8] 0.019 | ralimetinib -0.08 | [15] -0.046 | [9] -0.038 | [10] 0.01 | [11] -0.007 | [12] 0.024 | [16] 0.033 | [13] -0.032

B2M (UniProt P61769)
inactive: erlotinib -0.017 | [1] 0.035 | [2] -0.044 | [3] 0.011 | [4] 0.074 | [14] 0.041 | [5] -0.002 | [6] 0.029 | [7] 0.068 | IRAK-1-4 Inhibitor I 0.018 | ibrutinib -0.012 | [8] 0.026 | ralimetinib -0.035 | [15] -0.019 | [9] -0.006 | [10] 0.277 | [11] -0.134 | [12] 0.061 | [16] -0.022 | [13] 0.009

From the supplement of paper PMC10849652
